{"source": "patent CN109897106A", "binders": {"B1": {"name": "TRPV3-VHH6 (VHH, not shown: small tags and cut ends)", "VHH": "RWQLVESGGGLVQPGGSLRLSCAASGFTLSTYRMTWVRQAPGKGLEWVSDISPGGGVTSYADTVKGRFTISRDNFKNALYLQMNSLKPEDTAVYYCAKRDLGLRDWGQGTLVTVSA"}, "B2": {"name": "SEQ ID NO 2 (VHH)", "VHH": "MVQLVDSGGGLVQPGGSLRLSCAASGFTSLDYYAFAWFRQAPGKEREGVSCISDSGGSTNYADSVKGRFAISRDNAKNTVYLQMNSLKPEDTAVYYCAKRDLGLRDWGQGTLVTVSS"}, "B3": {"name": "SEQ ID NO 3 (VHH)", "VHH": "AVQLVESGGGLAQPGGSLRLSCVSSGSVFSQNAMGWYRQVPGKRRELITHIQSGGSTYYADSVKGRFTISRDNAKNTLYLQMNSLKPEDTAVYYCAKRDLGLRDWGQGTLVTVSS"}}, "key": {"TRPV3多肽 (TRPV3的一小段多肽, …) [1]": {"biological_target": "T1, TRPV3多肽 (TRPV3的一小段多肽, …)", "T1 sequence (peptide)": "CSYYRPREEEAIPHP", "test": "ELISA"}, "TRPV3多肽 (TRPV3的一小段多肽, …) [2]": {"biological_target": "T1, TRPV3多肽 (TRPV3的一小段多肽, …)", "test": "ELISA with nickel-purified TRPV3-VHH6"}, "TRPV3多肽 (TRPV3的一小段多肽, …) [3]": {"biological_target": "T1, TRPV3多肽 (TRPV3的一小段多肽, …)", "test": "ELISA, E. coli lysate supernatant on coated TRPV3 peptide, anti-HIS detection"}}, "note": "Results are given in words; binding and its absence hold for the method and conditions named. Some entries that bind do so weakly or less than the wild type."}
{"binder": "B1", "values": [{"measurement": "binding", "setting": "TRPV3多肽 (TRPV3的一小段多肽, …) [1]", "value": "binds"}, {"measurement": "binding", "setting": "TRPV3多肽 (TRPV3的一小段多肽, …) [2]", "value": "binds"}, {"measurement": "binding", "setting": "TRPV3多肽 (TRPV3的一小段多肽, …) [3]", "value": "binds"}]}
{"binder": "B2", "values": [{"measurement": "binding", "setting": "TRPV3多肽 (TRPV3的一小段多肽, …) [1]", "value": "binds"}]}
{"binder": "B3", "values": [{"measurement": "binding", "setting": "TRPV3多肽 (TRPV3的一小段多肽, …) [1]", "value": "binds"}]}
